Data taken from patent publication US20020120112A1.
Results are given in words; binding and its absence hold for the method and conditions named. Binding seen in cells or lysates may run through a third protein. Some entries that bind do so weakly or less than the wild type.

By UniProt entry, the sequences of proteins in these tests, tags left out.
UniProt Q86Y01: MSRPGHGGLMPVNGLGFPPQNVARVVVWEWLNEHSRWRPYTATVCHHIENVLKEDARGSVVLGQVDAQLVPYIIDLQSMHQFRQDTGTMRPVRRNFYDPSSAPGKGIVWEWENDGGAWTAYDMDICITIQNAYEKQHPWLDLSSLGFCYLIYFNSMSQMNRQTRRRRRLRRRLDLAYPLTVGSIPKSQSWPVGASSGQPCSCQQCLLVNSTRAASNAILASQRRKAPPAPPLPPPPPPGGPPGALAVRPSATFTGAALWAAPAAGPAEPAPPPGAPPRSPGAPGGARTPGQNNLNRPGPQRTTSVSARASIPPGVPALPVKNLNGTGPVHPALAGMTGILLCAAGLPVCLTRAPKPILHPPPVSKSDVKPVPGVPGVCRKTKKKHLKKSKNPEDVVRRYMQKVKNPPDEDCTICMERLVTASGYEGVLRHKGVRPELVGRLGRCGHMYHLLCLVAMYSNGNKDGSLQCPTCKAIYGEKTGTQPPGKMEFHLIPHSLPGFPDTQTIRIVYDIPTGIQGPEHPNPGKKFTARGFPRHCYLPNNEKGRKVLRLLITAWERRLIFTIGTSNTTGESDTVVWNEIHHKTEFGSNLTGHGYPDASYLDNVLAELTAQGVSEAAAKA

Target: Myc-tagged human DTX1 (human Deltex) (human) (UniProt Q86Y01)
Test: co-immunoprecipitation from co-transfected COS7 cells: IP with anti-flag antibody, western blot

Substance: FLAG-tagged BBAP (from UniProt Q8TDB6 1-739)
- binding: binds
